The values below come from article PMC6957519, “NLRP6 self-assembles into a linear molecular platform following LPS binding and ATP stimulation” (Scientific Reports, 2020).

The target in test [1] is Recombinant full-length human NLRP6 (1–892) (human) (UniProt P59044). In words: condition: only monomer preparation, without added LPS; negative-stain electron microscopy with 3D reconstruction; NLRP6 monomer preparation, no ligand added; 16128 particles; EMAN and EMAN2; both purified.
For test [2] the target is unchanged. In words: condition: only in 20 mM MES pH 6.5, 0.5 M NaCl, 5% glycerol, 0.2-0.5 M Arginine, without added LPS; SEC; NLRP6 alone, no ligand added; buffer 20 mM MES pH 6.5, 0.5 M NaCl, 5% glycerol, 0.2-0.5 M Arginine; analytical gel filtration; both purified.
For test [3] the target is unchanged. In words: SEC; NLRP6 monomer incubated with ATP, without LPS; Superdex 200; both purified.

No constants are given. Whether binding was seen depends on the method and setting.

B1: Recombinant full-length human NLRP6 (1–892) (natural protein, UniProt P59044 1-892, looked up)
chain: MDQPEAPCSSTGPRLAVARELLLAALEELSQEQLKRFRHKLRDVGPDGRSIPWGRLERADAVDLAEQLAQFYGPEPALEVARKTLKRADARDVAAQLQERRLQRLGLGSGTLLSVSEYKKKYREHVLQLHARVKERNARSVKITKRFTKLLIAPESAAPEEAMGPAEEPEPGRARRSDTHTFNRLFRRDEEGRRPLTVVLQGPAGIGKTMAAKKILYDWAAGKLYQGQVDFAFFMPCGELLERPGTRSLADLILDQCPDRGAPVPQMLAQPQRLLFILDGADELPALGGPEAAPCTDPFEAASGARVLGGLLSKALLPTALLLVTTRAAAPGRLQGRLCSPQCAEVRGFSDKDKKKYFYKYFRDERRAERAYRFVKENETLFALCFVPFVCWIVCTVLRQQLELGRDLSRTSKTTTSVYLLFITSVLSSAPVADGPRLQGDLRNLCRLAREGVLGRRAQFAEKELEQLELRGSKVQTLFLSKKELPGVLETEVTYQFIDQSFQEFLAALSYLLEDGGVPRTAAGGVGTLLRGDAQPHSHLVLTTRFLFGLLSAERMRDIERHFGCMVSERVKQEALRWVQGQGQGCPGVAPEVTEGAKGLEDTEEPEEEEEGEEPNYPLELLYCLYETQEDAFVRQALCRFPELALQRVRFCRMDVAVLSYCVRCCPAGQALRLISCRLVAAQEKKKKSLGKRLQASLGGGSSSQGTTKQLPASLLHPLFQAMTDPLCHLSSLTLSHCKLPDAVCRDLSEALRAAPALTELGLLHNRLSEAGLRMLSEGLAWPQCRVQTVRVQLPDPQRGLQYLVGMLRQSPALTTLDLSGCQLPAPMVTYLCAVLQHQGCGLQTLSLASVELSEQSLQELQAVKRAKPDLVITHPALDGHPQPPKELISTF
notes: NLRP6, human, full length, residues 1-892; Number of copies depends on the condition: monomer in the arginine buffer, dimer with LPS, tetramer, hexamer and longer linear oligomers with LPS and ATP; also called NLRP6 monomer; NLRP6 dimer; not shown: His-tag, N-terminal, cleaved; MBP, N-terminal, cleaved
For the molecule B1, the binding result in test [1] is “no binding”; in test [2] it was “no binding”; in test [3], “no binding (condition: with ATP, without LPS)”.
